The values that follow come from the M2OR odorant receptor database.

What all share (conditions): stereoisomer not certain
The target of assay [1] is T1, OR51I1 (Homo sapiens) (UniProt Q9H343).
T1 sequence (whole entry): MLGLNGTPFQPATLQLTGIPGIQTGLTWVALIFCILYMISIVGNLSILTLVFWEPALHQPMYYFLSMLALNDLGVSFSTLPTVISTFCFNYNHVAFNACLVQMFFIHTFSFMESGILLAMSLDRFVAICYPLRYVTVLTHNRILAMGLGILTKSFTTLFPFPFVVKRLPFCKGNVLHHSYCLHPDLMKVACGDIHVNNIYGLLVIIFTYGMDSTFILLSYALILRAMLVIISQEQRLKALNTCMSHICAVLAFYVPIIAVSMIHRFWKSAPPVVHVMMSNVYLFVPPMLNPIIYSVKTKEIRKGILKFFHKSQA
Summed up:
(§1)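 Each entry records the cell line, G-protein, co-transfected protein and tags used. Methods varied with the source, often transient luciferase assays in mammalian cell lines. A receptor–molecule pair is called responsive (active) if the original authors judged its signal statistically different from baseline and non-responsive (inactive) otherwise.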

Assay [2] concerns the target T2, OR51I2 (Homo sapiens) (UniProt Q9H344).
T2 sequence (whole entry): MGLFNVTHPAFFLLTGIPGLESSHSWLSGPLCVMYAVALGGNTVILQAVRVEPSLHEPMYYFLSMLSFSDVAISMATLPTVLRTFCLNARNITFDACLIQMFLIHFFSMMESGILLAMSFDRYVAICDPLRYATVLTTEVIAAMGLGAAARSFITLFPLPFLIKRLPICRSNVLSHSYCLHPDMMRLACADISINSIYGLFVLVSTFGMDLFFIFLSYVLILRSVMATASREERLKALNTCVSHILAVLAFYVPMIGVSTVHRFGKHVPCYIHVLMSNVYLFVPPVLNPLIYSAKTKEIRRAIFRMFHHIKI
Summed up: as §1

Assay [3] addresses T3, OR51L1 (Homo sapiens) (UniProt Q8NGJ5).
T3 sequence (whole entry): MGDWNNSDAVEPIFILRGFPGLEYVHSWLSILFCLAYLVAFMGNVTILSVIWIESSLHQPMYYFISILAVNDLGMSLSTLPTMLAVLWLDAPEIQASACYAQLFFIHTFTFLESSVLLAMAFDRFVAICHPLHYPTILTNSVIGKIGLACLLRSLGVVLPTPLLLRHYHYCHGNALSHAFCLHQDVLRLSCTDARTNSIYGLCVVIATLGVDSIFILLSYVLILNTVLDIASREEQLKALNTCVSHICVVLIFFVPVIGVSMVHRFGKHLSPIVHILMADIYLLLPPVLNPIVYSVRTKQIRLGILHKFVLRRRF
Summed up:
as §1

Assay [4] deals with T4, OR51S1 (Homo sapiens) (UniProt Q8NGJ8).
T4 sequence (whole entry): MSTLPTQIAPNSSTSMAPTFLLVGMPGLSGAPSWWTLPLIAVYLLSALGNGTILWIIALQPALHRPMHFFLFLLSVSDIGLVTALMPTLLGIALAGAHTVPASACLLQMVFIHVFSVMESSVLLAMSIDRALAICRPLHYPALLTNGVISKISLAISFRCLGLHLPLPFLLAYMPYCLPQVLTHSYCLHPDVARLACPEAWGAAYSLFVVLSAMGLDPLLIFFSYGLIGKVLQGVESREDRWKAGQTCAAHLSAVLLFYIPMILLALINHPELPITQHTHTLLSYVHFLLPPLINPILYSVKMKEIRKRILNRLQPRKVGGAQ
The gist of the method:
as §1

Assay [5] has as its target T5, OR52A4P (Homo sapiens) (UniProt A6NMU1).
T5 sequence (whole entry): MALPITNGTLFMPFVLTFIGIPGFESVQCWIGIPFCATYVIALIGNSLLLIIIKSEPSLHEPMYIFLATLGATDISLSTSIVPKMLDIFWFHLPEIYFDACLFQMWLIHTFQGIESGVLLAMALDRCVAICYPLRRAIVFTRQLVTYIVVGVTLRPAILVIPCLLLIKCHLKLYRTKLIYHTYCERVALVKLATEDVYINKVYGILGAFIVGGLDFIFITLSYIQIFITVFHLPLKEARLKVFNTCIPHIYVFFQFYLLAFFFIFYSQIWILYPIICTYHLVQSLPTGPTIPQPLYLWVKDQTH
Summed up:
as §1

Assay [6] deals with T6, OR52A5 (Homo sapiens) (UniProt Q9H2C5).
T6 sequence (whole entry): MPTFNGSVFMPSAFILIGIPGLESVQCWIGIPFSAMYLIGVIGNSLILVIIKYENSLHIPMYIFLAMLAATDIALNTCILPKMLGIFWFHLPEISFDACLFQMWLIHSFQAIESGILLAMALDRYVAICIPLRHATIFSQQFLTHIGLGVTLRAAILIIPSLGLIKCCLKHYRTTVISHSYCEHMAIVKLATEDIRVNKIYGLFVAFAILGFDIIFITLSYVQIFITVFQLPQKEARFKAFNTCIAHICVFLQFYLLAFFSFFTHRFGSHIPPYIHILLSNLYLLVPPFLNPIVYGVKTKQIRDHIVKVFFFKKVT
Summed up: as §1

In assay [7] the target is T7, OR52B4 (Homo sapiens) (UniProt Q8NGK2).
T7 sequence (whole entry): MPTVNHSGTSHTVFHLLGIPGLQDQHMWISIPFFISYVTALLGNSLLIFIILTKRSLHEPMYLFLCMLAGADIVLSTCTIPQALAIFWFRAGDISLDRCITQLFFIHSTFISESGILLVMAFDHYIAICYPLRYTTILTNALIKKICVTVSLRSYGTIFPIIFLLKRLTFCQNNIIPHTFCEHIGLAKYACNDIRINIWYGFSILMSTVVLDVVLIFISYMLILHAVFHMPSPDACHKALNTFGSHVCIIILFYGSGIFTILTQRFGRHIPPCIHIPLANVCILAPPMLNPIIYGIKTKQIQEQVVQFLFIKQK
Summed up: as §1

For assay [8], the target named is T8, OR52D1 (Homo sapiens) (UniProt Q9H346).
T8 sequence (whole entry): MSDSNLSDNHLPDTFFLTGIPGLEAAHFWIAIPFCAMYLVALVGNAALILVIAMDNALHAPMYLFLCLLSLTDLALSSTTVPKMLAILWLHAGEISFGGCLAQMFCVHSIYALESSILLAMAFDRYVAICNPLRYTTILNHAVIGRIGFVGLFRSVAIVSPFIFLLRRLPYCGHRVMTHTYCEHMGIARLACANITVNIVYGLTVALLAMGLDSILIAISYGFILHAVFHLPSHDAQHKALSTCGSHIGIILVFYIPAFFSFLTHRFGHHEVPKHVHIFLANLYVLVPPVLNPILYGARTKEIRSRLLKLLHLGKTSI
Summed up: as §1

This is a selection; strong and weak results do not stand in their true shares. The calls were merged from several studies; some rest on single wells. The list shows a part of the results.

As to `CC(=O)OC(C)(C)C1CC=C(C)CC1` (stereo not given), in assay [1], the “odorant receptor agonist call” value was “active”. The “odorant receptor agonist call” value in assay [2], in assay [3], in assay [4], in assay [5], in assay [6] and in assay [7] was “inactive” each time. In addition, in assay [8], the “odorant receptor agonist call” value was “inactive”.

In the case of `CCCCO`, the “odorant receptor agonist call” value in assay [1], in assay [2], in assay [3], in assay [4], in assay [5] and in assay [6] was “inactive” in each case. The “odorant receptor agonist call” value in assay [7] and in assay [8] was “inactive” in each case.

For the molecule `C=C(C)C1CCC2=CC(=O)CC(C)C2(C)C1` (stereo not given), the “odorant receptor agonist call” value in assay [1] and in assay [4] was “active” throughout. Besides, the “odorant receptor agonist call” value in assay [5] and in assay [6] was “inactive” in each case.

For `C=C(C)C1CC=C(C)C(=O)C1` (stereo not given), the “odorant receptor agonist call” value in assay [3] is “inactive”.

As to `CCCCCC(C)=O`, the “odorant receptor agonist call” value in assay [2], in assay [3], in assay [7] and in assay [8] was “inactive” each time.

Turning to `c1ccc(Oc2ccccc2)cc1`, the “odorant receptor agonist call” value in assay [1], in assay [2], in assay [3], in assay [4], in assay [5] and in assay [6] was “inactive” each time. Also, the “odorant receptor agonist call” value in assay [7] and in assay [8] was “inactive” in each case.

With `O=C1CCCCC1`, the “odorant receptor agonist call” value in assay [2], in assay [3] and in assay [7] was “inactive” each time. Further, in assay [8], the “odorant receptor agonist call” value was “active”.

On to `CC(C)CC(=O)O`, for which the “odorant receptor agonist call” value in assay [1], in assay [2], in assay [3], in assay [4], in assay [5] and in assay [6] was “inactive” throughout. Moreover, the “odorant receptor agonist call” value in assay [7] was “inactive”. For the same molecule, in assay [8], the “odorant receptor agonist call” value is “active”.

Take `C=CCc1ccc(OC)c(OC)c1`: the “odorant receptor agonist call” value in assay [1], in assay [2], in assay [3], in assay [4], in assay [5] and in assay [6] was “inactive” each time. Also, the “odorant receptor agonist call” value in assay [7] and in assay [8] was “inactive” each time.

Take `CCCCCCC=O`: the “odorant receptor agonist call” value in assay [3] and in assay [8] was “inactive” in each case.
